Screen size: about 53,000 sequences; about 3,700 (7%) were called active.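 How the source made its calls: active means gene knockdowns whose robust z-score for IL-1 alpha signal is at least 2 or at most -2, so actives lie on both sides; inactive means the rest.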 The list shows a part of the results.
experiment: Components of the Cytosolic LPS Sensing Pathway: Gene Identification via Genome-wide siRNA Screen; details: RAW264.7 macrophages, IL-1a HTRF, actives lie on both sides, screened at 100 nM (by protocol), cells primed 5 h with Pam3CSK4 first;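 further: robust z of the log signal after scaling to non-targeting control siRNA wells of the plate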
Method in brief: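 IL-1a HTRF of supernatants after 24 hour LipidA transfection of Pam3CSK4-primed (5 hours) RAW264.7 cells, 48h post-siRNA transfection (100 nM). Scores: percent of plate negative-control median, then log-based robust z-score.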

z-score, inactive:
GCCGGAUCCUAAAGAGUCATT against Ska1 -0.502
GCCGAUUCUCAUAUUUGACTT against Exo1 -0.742
CCUCAUUCAGUAUGUCGCATT against Atg2b -0.227
GGAUAAAAGACUGAACAGUTT against Gpatch1 -0.533
CGCAUAGAGCCUGUCCUCATT against Spink1 -1.57
GGCAAAGAGGAAAAGAGUGTT against Gtf2h2 -0.543
CCUGCUUUCUCUAUACCUATT against Hrob 1.2
GCAAUAAGGGCAUUAUAAATT against Wdhd1 -0.407
GGUCAUUUUGUUUCGCUUUTT against Fgf5 -0.232
GCAUCUCCCAACCAUGAUGTT against Myl3 0.292
AAGACUUGAUCUGAGCAGATT against Ecm2 0.361
GGAACUCCAACAGGACUUUTT against Slc26a9 -0.565
CCAUGUUUAUGGCACGCUGTT against Postn 0.536
GGUGUUCGAUGGACGUGAUTT against Bmp1 -0.183
GGUUUUCUCAGACUACUCGTT against Lmtk3 0.524
GCGGCUCACAAGAGUAUCGTT against Bend5 -0.0337
CCGGAGGUUUAGAAGAGGATT against Cep128 1.61
GGGAAUGAAUUCAUCUAAATT against Tbc1d1 -0.115
GGGUUUGUAAUAAUGCUUGTT against Cmtm6 0.671
CGAUGCUGUUCUUCAAUGUTT against Krt222 1.23
GCGAUAUAAGAGAGACAAGTT against Tmem40 0.982
GACUCUCACCUCCUUGAAUTT against Krtap6-5 0.645
GGAGUCUGAAGAAUACUCUTT against Rbbp8nl 0.467
GAGAACGCGUUUUUGGGACTT against Defa5 1.66
GCUUUACAUCUUUGAAUGGTT against Bpifa2 -0.596
GGAGGUGGUGAAUAAGGAUTT against Mcm7 0.409
GGCAAACUCGGGUAUACACTT against Mybpc1 0.394
GGACUUGAAAGACGAGAUATT against Cyp19a1 0.31
GGCUGACAUUAAAAAGGCATT against Dnajc16 -0.384
CGGAUUUUGAACUAACGCATT against Plcxd1 -1.11
GGAGGAAAAAAAACAGUGATT against Trim7 -0.487
GGAGAUAAAGGGAACACCATT against Rtf2 -0.384
GGAUUGUCAAAAUGUGGACTT against Smyd2 -1.32
GCAGUUGGGUUGGUAACUATT against Ash1l 0.101
GGAGAAUCAAUGAGUAUCCTT against Apoe 0.192
GGUUGUUAAAGGAAAACUATT against Olfr1023 0.949
GGAUUGAGUGAACCCUCCCTT against Rpl36 1.02
GGUCCAGUGAAAUAAUAUCTT against Orc3 0.774
GGUCACAUUCGCUCUCUUGTT against Olfr1155 0.238
CGUGAUUGUGGACCAUUCUTT against Mif4gd 0.555
GGGAAGGAAGAAUUUAUUUTT against 6430571L13Rik 1.24
CCAGACCUGUGGUAAUCUATT against D3Ertd751e -0.875
GGCUUAACAGAGAAACACCTT against Lrrc49 0.563
GCCCAUGAUAAAAGAAGAATT against Pex1 -0.429
GGUGGUCAAUCGGAAGCUCTT against Ppp6r1 0.482
GAACAAGGCGGACUUCCAATT against Dad1 1.16
GGAGUGCUAUGACAAUUUUTT against Slc12a1 0.197
GGAGCUCUUUUUGAACACUTT against Sgcg 0.946
GGCCGUGUCAUUCAUUGGCTT against Adssl1 -0.161
CCCGUCAAAUAUGAAUACCTT against Klk1 0.273
GGACUCUGAUCUGGAGUAGTT against Slc51a -0.397
GGAAAACUUUCAAAGAGAUTT against Mc4r 0.24
GCAUCUGAUCUACCAGUCGTT against Prdm9 1.4
GGCGGAUGGACUAAUUUACTT against Zap70 0.456
GGUGCACUGCCAAUUAUCUTT against Btbd11 0.18
CCACUUGUUAGGUUGCUGCTT against Neurog1 -0.0278
GGAACUGAUGAUCCUCAUGTT against Ube2c -0.852
CCAUUGCAUUACCGGUACCTT against Kcna6 1.43
GCUGAAUACAGUUGGUGCUTT against Nelfa -0.259
CCCAAGGACUAUGAAGUUGTT against Col1a2 -1.62
GCUCUCACACCCUUAUGUATT against Nptn -1.45
GGCUUUGACCCGAAAAGAATT against Tut4 -0.0161
CGAGAAUUCCUUGCUCUAATT against Mgat4a 0.194
GCCUGUGGUGACAAGCAGATT against Insc 0.6
GGAAAGUUUACACUAAAAGTT against Klf6 0.508
GGAUUAUCCUCUUUGACACTT against Kremen1 0.0285
GGUGCUAAAAACUCAAGUCTT against Dynlt1b 0.0983
GGAGGUGUCAGAACACUGUTT against Csf1 0.518
GGUAUUAUGAGACAGGAAGTT against Pax5 -1.61
GCAUCAUCGUUUUUGGAAATT against Slc35e2 -0.822
GGGCAUUUCCCAAAACAUATT against Elovl2 0.391
GGGCAGUCCGUUUCUUAACTT against Kptn 0.815
GGUAUAGCAAUUUCUACAATT against Chrna2 -0.174
GGAUGCAUUGCUGCUGUGGTT against Sptbn1 0.326
GGUCUUGUAUGCUAACUGGTT against Fubp1 1.55
GGACUACUCGGCCAUCAUUTT against Map3k6 -1.22
GGGCCAUCUCUCAAUUAUGTT against Gga2 1.93
CGGUUCAGCUGUCAUUGAUTT against Slc2a13 0.82
GGCUUGUCAGAAUUCUUCUTT against Ccdc178 0.234
GGUAAAAGCUACCAUUCAGTT against Ap2a2 -0.947
GCUUAUUGAAUCCCUCUUATT against Tchhl1 0.26
GAGUCCCUUGGCAGCUCAUTT against Klra8 -0.0989
GGUUUAGUGAAAAACUGCUTT against Hmga2 1.16
GGUAGAAACUGACCACAUATT against Aifm1 0.917
GGAACAUAUACUGGACAGATT against Zfp825 0.436
GGUUUUUUGAGCAUGGGUUTT against Alk -0.76
GGCAUGAUAAAGAAUGUCATT against Ppbp -1.95
GGAAAUGAAGAAAAGUGACTT against Stk32a -0.0588
GGAGGUACCACGAAUCCUUTT against Gm609 -0.64
CGGUUCAACACAACAACACTT against Cntnap5b 0.421
GGUGUGAGCUAUGUGUACATT against Vmn1r62 0.584
GGGAAAGGAUUCAAUUAAGTT against Lratd2 0.0415
GGACCAUGCUCCCUACUUATT against Prss37 0.386
CGAUCUACAAGGACACCGATT against Taf1c -0.565
GGAAAUCAGAGCUGAGUUATT against Ankrd6 0.0763
GGAGAUAUGGCCAUCACUCTT against Toe1 1.11
CCAAGAAGAUUAGAGACAGTT against Olfr591 1.25
GGUUUGGAAUCAAAACAAGTT against Caap1 -0.147

For convenience, part of the list above.
z-score, inactive:
GGGAAGGAAGAAUUUAUUUTT against 6430571L13Rik 1.24
CCAGACCUGUGGUAAUCUATT against D3Ertd751e -0.875

Pulled one by one from above:
z-score, inactive:
GGAGUGCUAUGACAAUUUUTT against Slc12a1 0.197
GGUGCACUGCCAAUUAUCUTT against Btbd11 0.18

Following part:

z-score, active:
GCCUUUGAUAGUGGUGAAUTT against F11r -3
GGUGUAACACUCAUUUAUCTT against Ifitm3 2.88
GGAAUGAGCUGAAUGCAAATT against Psmc5 -2.08
GGAGGAAGAAGACUCAGAATT against Prkag2 3.46
GGUCUCGCUCCAAGGAAGATT against Tra2b 2.56
GGGUUGUCGUUCAGUUUACTT against Art2a 2.8
GCAGCACGAACUGAUGACGTT against Plcd3 -2.18
GGUCUUUGAGUCUACACAGTT against Pde4dip -2.52
GGUGACACUCAAGGUGUCATT against Ldlrap1 2.23

From PubChem BioAssay AID1508600 (Functional Genomics Laboratory (NCATS/FGL), 2020)
